Results are given in words; binding and its absence hold for the method and conditions named. Some entries that bind do so weakly or less than the wild type.
Key:
[1] = molecular target: human FAP on the surface of CHO-K1 cells (CHO-K1-HuFAP) (human) (UniProt Q12884); test: FACS, CHO-K1-HuFAP cells
[2] = molecular target: human CD40 on the surface of HEK293 cells (HEK293-HuCD40) (human) (UniProt P25942); test: FACS, HEK293-HuCD40 cells

Sequences of proteins named here, by UniProt entry; tags and fusion partners are left off. Residues count along the entry.
UniProt P25942, residues 21-277: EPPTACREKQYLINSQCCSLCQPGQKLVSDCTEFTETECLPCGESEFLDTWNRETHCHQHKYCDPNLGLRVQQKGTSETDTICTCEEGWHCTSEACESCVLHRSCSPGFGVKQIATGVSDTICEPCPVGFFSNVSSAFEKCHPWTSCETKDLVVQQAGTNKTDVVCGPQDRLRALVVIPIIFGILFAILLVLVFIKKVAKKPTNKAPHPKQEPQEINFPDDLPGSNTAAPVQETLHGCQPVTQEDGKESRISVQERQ

Question: What does the source list for “B785502 (anti-FAP/4-1BB/CD40 trispecific antibody) (from UniProt P0DOX7 1-214)”?
Answer: binding [1]: binds; binding [2]: binds
